Laboratory results published in PubChem BioAssay AID1487 (National Center for Advancing Translational Sciences (NCATS), 2009).
This is one part of the list. Further columns of the screen follow, without active or inactive calls. Compounds called inactive in the main read-out are mostly missing here. The note in brackets gives the kind of curve behind each potency; many fits are weak.

Assay: qHTS Assay for Modulators of Lamin A Splicing
Conditions: HeLa LMNA splicing GFP/RFP minigene ratio, 48 h
Summary of the method: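 S3 HeLa stable clones carrying a lamin A-EGFP splicing minigene plus DsRed2 were seeded at 600 cells/well in Opti-MEM with 2% FBS, pin-dosed and incubated 48 h at 37°C. Acumen cytometry (488 nm) gave the GFP/RFP total-intensity ratio.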

[1] = measured here: GFP splicing reporter channel
[2] = measured here: RFP viability control channel

| Structure (SMILES) | AC50 [1] | AC50 [2] |
| --- | --- | --- |
| Cc1ccc(N(C)S(=O)(=O)c2ccc(-c3coc(C)n3)cc2)cc1 | 35.5 µM [falling, single point] |  |
| NC(=O)N/N=C/c1cc(Br)ccc1OCC(=O)NCc1ccccc1 | 11.2 µM [rising, single point] | 20 µM [rising, single point] |
| CN(c1ccc(C(=O)NCCSC(C)(C)C)cc1)S(=O)(=O)c1ccccc1 | 10 µM [falling, partial curve, poor fit] | 0.1 µM [falling, partial curve, poor fit] |
| CCOc1ccc(CCNC(=O)c2cc3sccc3n2CC)cc1OCC | 2.82 µM [rising, single point] | 4.47 µM [rising, full curve] |
| CC(=O)NCCNC(=O)c1ccc(Sc2ccccc2)c([N+](=O)[O-])c1 | 0.00447 µM [falling, full curve, poor fit] |  |
| O=C(COC(=O)c1cccnc1Nc1cccc(C(F)(F)F)c1)NCCN1C(=O)CSC1=O | 35.5 µM [rising, single point] | 35.5 µM [rising, single point] |
| O=C(Cc1coc2ccc3ccccc3c12)Nc1nnc(C2CC2)s1 | 6.31 µM [rising, partial curve] | 3.16 µM [rising, full curve] |
| COc1ccc(CCNC(=O)c2cn3ccc(C)cc3n2)cc1OC |  | 11.2 µM [falling, partial curve] |
| CC(=O)O[C@@H]1C[C@H]2C(C)(C)C(=O)C=C[C@]2(C)[C@H]2CC[C@@]3(C)[C@H](c4ccoc4)OC(=O)[C@H]4O[C@]43[C@@]21C |  | 28.2 µM [rising, single point] |
| O=C(CSCc1ccc(Cl)cc1)Nc1ccc(S(=O)(=O)N2CCOCC2)cc1 |  | 35.5 µM [rising, single point] |
| Cc1cc(NC(=O)c2cnn3cccnc23)n(-c2ccccc2)n1 |  | 2.82 µM [rising, partial curve, poor fit] |
| COc1ccc(OC)c(-c2csc(NC(=O)CSc3ccc([N+](=O)[O-])cc3)n2)c1 | 35.5 µM [rising, single point] |  |
| CCc1nnc(NC(=O)CSc2nnc(-c3c[nH]c4ccccc34)n2CC)s1 |  | 14.1 µM [rising, single point] |
| COc1ccc(NC(=O)c2c(NCc3ccc(OC)c(OC)c3OC)sc3c2CCC3)c(OC)c1 |  | 25.1 µM [falling, partial curve] |
| CCN1C(=O)[C@H]2[C@H]3[C@H](O)[C@H](O)C/C(=N\OC[C@@H](C)[C@H](OCc4ccccc4)C(C)C)[C@@H]3CC[C@H]2C1=O |  | 31.6 µM [rising, single point] |
| O=C(NCCCN1CCN(Cc2ccccc2)CC1)C1CCN(c2nnc(-n3cccc3)s2)CC1 | 4.47 µM [rising, partial curve] | 15.8 µM [rising, partial curve] |
| O=[N+]([O-])c1cc([N+](=O)[O-])c2c(=Nc3ccccc3)n(-c3ccccc3)n(O)c2c1 |  | 12.6 µM [rising, single point] |
| N#Cc1cnc(NN)nc1 |  | 2 µM [rising, partial curve] |
| COc1ccc(C2C=C(c3ccc(F)cc3)NC(=S)N2)cc1OC (stereo unspecified) |  | 35.5 µM [rising, single point] |
| Cc1cc(OC(C)C(=O)N2CCC(c3nc4ccccc4o3)CC2)ccc1Cl (stereo unspecified) | 0.00562 µM [falling, full curve, poor fit] | 22.4 µM [falling, partial curve, poor fit] |
| Cc1ccc(-c2csc(NC(=O)COc3ccc(N(C)S(=O)(=O)c4ccc(C)cc4)cc3)n2)cc1 | 8.91 µM [rising, partial curve] | 8.91 µM [rising, partial curve] |
| COc1ccc(S(=O)(=O)Cc2ccc(C(=O)N3CCN(c4cccc(C)c4C)CC3)o2)cc1 | 15.8 µM [falling, single point] | 31.6 µM [falling, single point] |
| CCCNC(=O)C1CCN(C(=O)N2CC(C)Oc3ccccc32)CC1 (stereo unspecified) | 17.8 µM [rising, partial curve] |  |
| COCCNC(=O)Nc1ccc2nc(-c3cccs3)c(-c3cccs3)nc2c1 |  | 25.1 µM [rising, single point] |
| Cc1cc(Oc2ccc(Cl)cc2)nc(SCC(=O)c2ccccc2)n1 |  | 20 µM [rising, single point] |
| Cc1onc(-c2c(Cl)cccc2Cl)c1C(=O)c1ccccc1 | 35.5 µM [falling, single point] | 0.355 µM [falling, full curve, poor fit] |

Exported bar-delimited: entries from further up
Structure (SMILES) | AC50 [1] | AC50 [2]
CCOc1ccc(CCNC(=O)c2cc3sccc3n2CC)cc1OCC | 2.82 µM [rising, single point] | 4.47 µM [rising, full curve]
CC(=O)NCCNC(=O)c1ccc(Sc2ccccc2)c([N+](=O)[O-])c1 | 0.00447 µM [falling, full curve, poor fit] | 
O=C(COC(=O)c1cccnc1Nc1cccc(C(F)(F)F)c1)NCCN1C(=O)CSC1=O | 35.5 µM [rising, single point] | 35.5 µM [rising, single point]
O=C(Cc1coc2ccc3ccccc3c12)Nc1nnc(C2CC2)s1 | 6.31 µM [rising, partial curve] | 3.16 µM [rising, full curve]
COc1ccc(CCNC(=O)c2cn3ccc(C)cc3n2)cc1OC |  | 11.2 µM [falling, partial curve]
CC(=O)O[C@@H]1C[C@H]2C(C)(C)C(=O)C=C[C@]2(C)[C@H]2CC[C@@]3(C)[C@H](c4ccoc4)OC(=O)[C@H]4O[C@]43[C@@]21C |  | 28.2 µM [rising, single point]
O=C(CSCc1ccc(Cl)cc1)Nc1ccc(S(=O)(=O)N2CCOCC2)cc1 |  | 35.5 µM [rising, single point]
Cc1cc(NC(=O)c2cnn3cccnc23)n(-c2ccccc2)n1 |  | 2.82 µM [rising, partial curve, poor fit]
COc1ccc(OC)c(-c2csc(NC(=O)CSc3ccc([N+](=O)[O-])cc3)n2)c1 | 35.5 µM [rising, single point] | 
CCc1nnc(NC(=O)CSc2nnc(-c3c[nH]c4ccccc34)n2CC)s1 |  | 14.1 µM [rising, single point]
COc1ccc(NC(=O)c2c(NCc3ccc(OC)c(OC)c3OC)sc3c2CCC3)c(OC)c1 |  | 25.1 µM [falling, partial curve]
CCN1C(=O)[C@H]2[C@H]3[C@H](O)[C@H](O)C/C(=N\OC[C@@H](C)[C@H](OCc4ccccc4)C(C)C)[C@@H]3CC[C@H]2C1=O |  | 31.6 µM [rising, single point]
O=C(NCCCN1CCN(Cc2ccccc2)CC1)C1CCN(c2nnc(-n3cccc3)s2)CC1 | 4.47 µM [rising, partial curve] | 15.8 µM [rising, partial curve]
O=[N+]([O-])c1cc([N+](=O)[O-])c2c(=Nc3ccccc3)n(-c3ccccc3)n(O)c2c1 |  | 12.6 µM [rising, single point]

(list continues)

| Structure (SMILES) | AC50 [1] | AC50 [2] |
| --- | --- | --- |
| O=C(Nc1sc2c(c1C(=O)O)CCCC2)c1cccs1 | 10 µM [rising, partial curve] | 11.2 µM [rising, partial curve] |
| CCOCCCNc1nc(=S)[nH]c2cc(OC)c(OC)cc12 |  | 31.6 µM [rising, single point] |
| O=C1NC(=O)c2cc(Nc3ccccc3)c(Nc3ccccc3)cc21 | 0.00501 µM [falling, full curve, poor fit] | 12.6 µM [falling, partial curve, poor fit] |
| CCOc1cc(C)nc(N2CCC(C(=O)Nc3ccccc3OCC)CC2)n1 |  | 14.1 µM [rising, single point] |
| NS(=O)(=O)c1ccc(N=Nc2c(-c3ccccc3)[nH]n(-c3nc(-c4ccccc4)cs3)c2=O)cc1 | 5.01 µM [rising, partial curve] | 3.55 µM [rising, full curve] |
| CCC(c1nnnn1Cc1ccc(OC)cc1)N1CCN(c2ccc(OC)cc2)CC1 (stereo unspecified) | 0.0316 µM [falling, full curve, poor fit] |  |
| Cn1nc(C(F)(F)F)c(-c2ccccc2)c1NC(=O)CSCC(=O)O | 1.58 µM [rising, partial curve] | 3.55 µM [rising, single point] |
| Cc1ccccc1NC(=O)CNc1ccccc1N1CCCCC1 | 12.6 µM [rising, single point] |  |
| CN(Cc1ccccc1)C(=O)c1ccc([N+](=O)[O-])o1 |  | 17.8 µM [rising, single point] |
| Cc1nn(C)c(C)c1NC(=O)c1ccc(Cl)cc1 | 28.2 µM [falling, single point] | 10 µM [falling, partial curve] |
| O=C(CCCSc1nc2ccccc2[nH]1)NC(c1ccccc1)c1ccccc1 |  | 12.6 µM [rising, single point] |
| COC(=O)c1ccc2c(=O)n(CCCCCC(=O)N3CCN(c4cc(C)ccc4C)CC3)c(=O)[nH]c2c1 | 35.5 µM [falling, single point] | 35.5 µM [falling, single point] |
| COc1ccc(CN2CC(=O)N(c3ccc(C)cc3)C2=S)cc1OC | 31.6 µM [rising, single point] | 35.5 µM [rising, single point] |
| CCn1nc(C)c(/C=C/C(=O)Nc2ccc(C)cc2C)c1C | 1.41 µM [rising, partial curve, poor fit] | 35.5 µM [rising, single point] |
| Cc1nc(CN(C)Cc2nc(Cc3ccccc3Cl)no2)cs1 |  | 20 µM [falling, partial curve, poor fit] |
| Cc1ccc(S(=O)(=O)N2CCc3nc(COc4ccccc4)c4c(c3C2)CO[C@@H](C)C4)cc1 |  | 1.26 µM [falling, single point] |
| CC(Sc1nc(-c2ccccc2)cs1)C(=O)Nc1ccc(Cl)cn1 (stereo unspecified) |  | 20 µM [rising, single point] |
| COc1ccccc1-c1cc(C(=O)N/N=C/c2sccc2C)c2ccccc2n1 | 0.794 µM [falling, single point] | 0.631 µM [falling, single point] |
| OC(CNCC1CCCO1)Cn1c2ccc(Cl)cc2c2cc(Cl)ccc21 (stereo unspecified) | 17.8 µM [falling, partial curve] | 20 µM [falling, partial curve] |
| Cc1ccc(NC(=O)CSc2nc3ccccc3c(=O)n2CCC(=O)NC2CCCCC2)cc1C |  | 35.5 µM [falling, partial curve, poor fit] |
| c1ccc(CN2CCN(c3nc(NCc4ccco4)c4ccccc4n3)CC2)cc1 | 15.8 µM [rising, partial curve] | 17.8 µM [rising, partial curve] |
| CCOc1ccccc1NC(=O)c1cc2cc3cc(C)ccc3nc2s1 | 14.1 µM [falling, partial curve] | 12.6 µM [falling, partial curve] |
| CCCn1c2ccccc2c2cnn(CC(=O)N(CC)c3cc(C)ccc3C)c(=O)c21 | 35.5 µM [falling, single point] | 31.6 µM [falling, single point] |
| CCN(c1ccccc1)S(=O)(=O)c1ccc(Cl)c(C(=O)NCCc2ccc(OC)cc2)c1 | 12.6 µM [rising, partial curve] | 22.4 µM [rising, single point] |
| COc1cc(C(=O)Nc2ccc(Cl)c(C(F)(F)F)c2)cc(OC)c1OC |  | 22.4 µM [rising, single point] |
| COC(=O)C1=C(O)/C(=C\c2sccc2C)N=C1C | 5.01 µM [falling, full curve, poor fit] |  |
